From patent publication US20140348840A1
No constants are given. Whether binding was seen depends on the method and setting. In cells and extracts the contact can be indirect. Some results given as binding are weak or reduced against the parent protein; the word gives no strength. Where a sequence is shown, tags or fusion partners need not be part of it.

Sequences of proteins named here, by UniProt entry; tags and fusion partners are left off. Residues count along the entry.
UniProt Q09472, residues 2-2414: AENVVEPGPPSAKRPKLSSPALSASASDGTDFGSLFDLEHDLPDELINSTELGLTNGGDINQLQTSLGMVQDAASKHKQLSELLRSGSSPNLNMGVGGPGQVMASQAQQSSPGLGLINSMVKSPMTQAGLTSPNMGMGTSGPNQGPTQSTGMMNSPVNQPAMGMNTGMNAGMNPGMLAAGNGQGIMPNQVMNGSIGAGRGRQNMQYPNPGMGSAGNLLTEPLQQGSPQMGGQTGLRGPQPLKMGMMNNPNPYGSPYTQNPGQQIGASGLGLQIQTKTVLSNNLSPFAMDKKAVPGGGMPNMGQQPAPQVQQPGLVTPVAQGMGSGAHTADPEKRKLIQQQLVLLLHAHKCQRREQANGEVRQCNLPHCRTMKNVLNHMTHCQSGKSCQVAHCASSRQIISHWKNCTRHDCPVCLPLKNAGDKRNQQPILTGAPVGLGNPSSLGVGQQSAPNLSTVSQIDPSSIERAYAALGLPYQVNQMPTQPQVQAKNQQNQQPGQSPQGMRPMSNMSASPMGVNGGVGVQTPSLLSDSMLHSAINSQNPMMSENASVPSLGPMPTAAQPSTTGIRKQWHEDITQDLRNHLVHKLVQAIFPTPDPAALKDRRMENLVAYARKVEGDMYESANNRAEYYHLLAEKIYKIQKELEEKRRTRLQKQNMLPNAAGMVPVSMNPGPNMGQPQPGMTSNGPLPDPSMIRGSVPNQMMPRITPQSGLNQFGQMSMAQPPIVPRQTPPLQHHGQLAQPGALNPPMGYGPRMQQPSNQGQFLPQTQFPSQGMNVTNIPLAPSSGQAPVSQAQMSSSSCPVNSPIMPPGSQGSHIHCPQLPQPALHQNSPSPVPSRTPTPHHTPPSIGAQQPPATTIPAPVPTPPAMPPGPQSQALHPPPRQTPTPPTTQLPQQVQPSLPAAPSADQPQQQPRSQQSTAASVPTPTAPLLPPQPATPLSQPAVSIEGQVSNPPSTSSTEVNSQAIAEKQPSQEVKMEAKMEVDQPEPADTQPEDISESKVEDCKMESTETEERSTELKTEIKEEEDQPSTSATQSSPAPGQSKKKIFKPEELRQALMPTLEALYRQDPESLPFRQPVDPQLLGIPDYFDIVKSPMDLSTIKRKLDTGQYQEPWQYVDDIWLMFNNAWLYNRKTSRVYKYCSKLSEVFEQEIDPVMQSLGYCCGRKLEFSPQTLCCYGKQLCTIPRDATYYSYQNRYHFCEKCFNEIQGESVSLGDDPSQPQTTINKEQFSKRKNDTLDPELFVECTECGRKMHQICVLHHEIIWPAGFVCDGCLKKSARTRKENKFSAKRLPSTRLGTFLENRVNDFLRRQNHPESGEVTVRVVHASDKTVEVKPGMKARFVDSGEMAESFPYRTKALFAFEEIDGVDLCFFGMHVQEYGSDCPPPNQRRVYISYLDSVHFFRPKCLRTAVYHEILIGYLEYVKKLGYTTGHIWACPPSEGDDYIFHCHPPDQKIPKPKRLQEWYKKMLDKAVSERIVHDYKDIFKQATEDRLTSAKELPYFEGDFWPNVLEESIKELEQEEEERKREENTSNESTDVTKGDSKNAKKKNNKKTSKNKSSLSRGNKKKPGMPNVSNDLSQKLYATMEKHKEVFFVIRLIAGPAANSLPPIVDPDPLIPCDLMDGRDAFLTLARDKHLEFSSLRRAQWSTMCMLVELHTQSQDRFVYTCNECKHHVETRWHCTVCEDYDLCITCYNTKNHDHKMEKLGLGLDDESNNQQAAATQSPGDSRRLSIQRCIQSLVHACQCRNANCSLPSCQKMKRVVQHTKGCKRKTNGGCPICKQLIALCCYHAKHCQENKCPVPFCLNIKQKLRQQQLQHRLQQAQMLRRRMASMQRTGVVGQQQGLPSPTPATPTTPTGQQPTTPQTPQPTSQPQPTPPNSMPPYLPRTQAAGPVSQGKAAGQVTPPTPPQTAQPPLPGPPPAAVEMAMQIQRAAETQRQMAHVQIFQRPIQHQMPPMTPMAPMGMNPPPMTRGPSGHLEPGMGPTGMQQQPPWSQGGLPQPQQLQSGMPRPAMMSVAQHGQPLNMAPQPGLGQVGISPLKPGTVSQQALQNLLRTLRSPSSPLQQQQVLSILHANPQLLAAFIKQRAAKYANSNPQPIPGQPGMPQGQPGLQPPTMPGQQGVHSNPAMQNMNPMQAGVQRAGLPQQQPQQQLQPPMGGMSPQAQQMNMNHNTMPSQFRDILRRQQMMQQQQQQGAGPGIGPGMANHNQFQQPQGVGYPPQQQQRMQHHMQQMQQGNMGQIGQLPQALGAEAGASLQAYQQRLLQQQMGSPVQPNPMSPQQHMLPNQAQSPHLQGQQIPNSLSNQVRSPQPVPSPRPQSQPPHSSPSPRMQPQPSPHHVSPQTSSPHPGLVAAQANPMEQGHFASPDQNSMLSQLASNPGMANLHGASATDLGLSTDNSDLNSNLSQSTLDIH

B1: Flag-ETO (protein, human, UniProt Q06455 1-604, looked up, not shown: small tags and cut ends)
chain: MISVKRNTWRALSLVIGDCRKKGNFEYCQDRTEKHSTMPDSPVDVKTQSRLTPPTMPPPPTTQGAPRTSSFTPTTLTNGTSHSPTALNGAPSPPNGFSNGPSSSSSSSLANQQLPPACGARQLSKLKRFLTTLQQFGNDISPEIGERVRTLVLGLVNSTLTIEEFHSKLQEATNFPLRPFVIPFLKANLPLLQRELLHCARLAKQNPAQYLAQHEQLLLDASTTSPVDSSELLLDVNENGKRRTPDRTKENGFDREPLHSEHPSKRPCTISPGQRYSPNNGLSYQPNGLPHPTPPPPQHYRLDDMAIAHHYRDSYRHPSHRDLRDRNRPMGLHGTRQEEMIDHRLTDREWAEEWKHLDHLLNCIMDMVEKTRRSLTVLRRCQEADREELNYWIRRYSDAEDLKKGGGSSSSHSRQQSPVNPDPVALDAHREFLHRPASGYVPEEIWKKAEEAVNEVKRQAMTELQKAVSEAERKAHDMITTERAKMERTVAEAKRQAAEDALAVINQQEDSSESCWNCGRKASETCSGCNTARYCGSFCQHKDWEKHHHICGQTLQAQQQGDTPAVSSSVTPNSGAGSPMDTPPAATPRSTTPGTPSTIETTPR
B2: Flag-ETO-ΔNHR2 (protein, human, UniProt Q06455 1-604, looked up, not shown: small tags and cut ends)
chain: MISVKRNTWRALSLVIGDCRKKGNFEYCQDRTEKHSTMPDSPVDVKTQSRLTPPTMPPPPTTQGAPRTSSFTPTTLTNGTSHSPTALNGAPSPPNGFSNGPSSSSSSSLANQQLPPACGARQLSKLKRFLTTLQQFGNDISPEIGERVRTLVLGLVNSTLTIEEFHSKLQEATNFPLRPFVIPFLKANLPLLQRELLHCARLAKQNPAQYLAQHEQLLLDASTTSPVDSSELLLDVNENGKRRTPDRTKENGFDREPLHSEHPSKRPCTISPGQRYSPNNGLSYQPNGLPHPTPPPPQHYRLDDMAIAHHYRDSYRHPSHRDLRDRNRPMGLEDLKKGGGSSSSHSRQQSPVNPDPVALDAHREFLHRPASGYVPEEIWKKAEEAVNEVKRQAMTELQKAVSEAERKAHDMITTERAKMERTVAEAKRQAAEDALAVINQQEDSSESCWNCGRKASETCSGCNTARYCGSFCQHKDWEKHHHICGQTLQAQQQGDTPAVSSSVTPNSGAGSPMDTPPAATPRSTTPGTPSTIETTPR

Tests used:
p300 [1] = target: p300 (UniProt Q09472); experiment: anti-Flag co-IP, Western blot for p300
p300 [2] = target: p300 (UniProt Q09472); experiment: anti-Flag co-IP from 293T cells, Western blot for p300

Binder	binding (p300 [1])	binding (p300 [2])
B1	binds	binds
B2		binds
